Measured values as given in PubChem BioAssay AID256 (DTP/NCI, 2004).
The list is a part of this screen's results and no random one: it is rich in T/C values a quarter to a half above the control, in often repeated tests (any T/C) and in doses without a T/C. Further doses and runs are listed elsewhere. T/C: endpoint of the treated group in % of that of the vehicle group. Some entries give survivors of the animals treated and no T/C: the source holds a T/C of zero for them, seemingly a mark for toxic or unscored doses. Some survivor counts are full or nearly so, which does not show that the dose was tolerated: the source hardly ever lists a survival T/C far under the control, and the zero likely stands for such cases as well. Survivors were counted at the toxicity check, usually on the fifth day, unless a day is given; later deaths do not show. Schedule codes are those of the source, taken here to give the interval after Q, in days (D) or hours (H), and the number of doses after X. Where survival is the endpoint, the PubChem record calls one and a half times the control and up active, and a quarter to a half above the control has no call in these data; cut-offs in other NCI protocols can differ. Some doses were run more than once; their values stand side by side, smallest first. Some T/C values carry the count of animals alive at the toxicity check (mostly the fifth day); without a count, all were alive then.

System: CD2F1 mice, L1210 leukemia ip, survival T/C
Experiment: NCI In Vivo Anticancer Drug Screen. Data for tumor model L1210 Leukemia (intraperitoneal) in CD2F1 (CDF1) mice
Conditions: higher T/C = longer survival
Method in brief: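 Activity against a transplanted murine tumor was judged by comparing the compound group with a vehicle group. The outcome in the treated animals was divided by that in the controls.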

[1] = T/C endpoint: mean survival time, dose: 200.0 mg/kg/injection, schedule: Q04DX003 (ip), vehicle: saline with Tween-80
[2] = T/C endpoint: mean survival time, dose: 100.0 mg/kg/injection, schedule: Q01DX009 (ip), vehicle: saline with Tween-80
[3] = T/C endpoint: mean survival time, dose: 200.0 mg/kg/injection, schedule: Q01DX009 (ip), vehicle: saline with Tween-80
[4] = T/C endpoint: mean survival time, dose: 400.0 mg/kg/injection, schedule: Q01DX009 (ip), vehicle: saline with Tween-80
[5] = T/C endpoint: mean survival time, dose: 100.0 mg/kg/injection, schedule: Q04DX003 (ip), vehicle: saline with Tween-80
[6] = T/C endpoint: mean survival time, dose: 400.0 mg/kg/injection, schedule: Q04DX003 (ip), vehicle: saline with Tween-80

`O=[N+]([O-])CC(OCCO)C(Cl)(Cl)Cl` (centres undefined) was tested, and the survivor count (T/C endpoint: mean survival time, dose: 35.0 mg/kg/injection, schedule: Q01DX009 (ip), vehicle: saline with Tween-80) was 0 of 6, the survivor count (T/C endpoint: mean survival time, dose: 50.0 mg/kg/injection, schedule: Q04DX003 (ip), vehicle: acetone) was 2 of 6 and the survivor count (T/C endpoint: mean survival time, dose: 55.0 mg/kg/injection, schedule: Q01DX009 (ip), vehicle: saline with Tween-80) was 0 of 6. The survivor count (T/C endpoint: mean survival time, dose: 80.0 mg/kg/injection, schedule: Q01DX009 (ip), vehicle: saline with Tween-80) was 0 of 6.
`CNC(=O)Oc1coc(CCl)cc1=O` was tested, and the survivor count [1] was 4 of 6.
With `CCCCCNCCOC(=O)c1ccc(N)cc1` the survivor count (T/C endpoint: mean survival time, dose: 80.0 mg/kg/injection, schedule: Q01DX001 (ip), vehicle: saline) was 1 of 6.
In the case of `O=C(OCc1ccccc1)C1CC1` (tested in a mixture with another compound), the survivor count (T/C endpoint: mean survival time, dose: 400.0 mg/kg/injection, schedule: Q01DX005 (ip), vehicle: saline with Tween-80) is reported as 0 of 3.
`O=C(NC(Cc1ccc(I)cc1)C(=O)O)c1ccc(Br)cc1` (centres undefined) was tested, and the survivor count (T/C endpoint: median survival time, dose: 400.0 mg/kg/injection, schedule: Q01DX009 (ip), vehicle: sodium bicarbonate) was 0 of 6.
`O=C(O)c1cc2ccc(Cl)cc2c2cc(C(F)(F)F)ccc12` was tested, and the survivor count (T/C endpoint: mean survival time, dose: 75.0 mg/kg/injection, schedule: Q01DX009 (ip), vehicle: saline) was 0 of 6, the survivor count (T/C endpoint: mean survival time, dose: 150.0 mg/kg/injection, schedule: Q04DX003 (ip), vehicle: saline) was 3 of 6 and the survivor count (T/C endpoint: mean survival time, dose: 300.0 mg/kg/injection, schedule: Q04DX003 (ip), vehicle: saline) was 1 of 6.
With `NC(=S)N/N=C/c1ccc(Cl)cn1` the T/C (T/C endpoint: mean survival time, dose: 7.33 mg/kg/injection, schedule: Q01DX009 (ip), vehicle: saline with Tween-80) was 141 % of control [9 of 10 alive], the T/C (T/C endpoint: mean survival time, dose: 11.0 mg/kg/injection, schedule: Q01DX009 (ip), vehicle: saline with Tween-80) was 140 % of control and the survivor count (T/C endpoint: mean survival time, dose: 16.5 mg/kg/injection, schedule: Q01DX009 (ip), vehicle: saline with Tween-80) was 5 of 10. For the same compound, the survivor count (T/C endpoint: mean survival time, dose: 25.0 mg/kg/injection, schedule: Q01DX009 (ip), vehicle: saline with Tween-80) was 0 of 10, the T/C (T/C endpoint: mean survival time, dose: 25.0 mg/kg/injection, schedule: Q04DX002 (ip), vehicle: saline with Tween-80) was 132 and 143 % of control and the survivor count (T/C endpoint: mean survival time, dose: 50.0 mg/kg/injection, schedule: Q04DX002 (ip), vehicle: saline with Tween-80) was 0 of 3. For the same compound, the survivor count (T/C endpoint: mean survival time, dose: 100.0 mg/kg/injection, schedule: Q04DX002 (ip), vehicle: saline with Tween-80) was 0 of 3, the survivor count (T/C endpoint: mean survival time, dose: 200.0 mg/kg/injection, schedule: Q04DX002 (ip), vehicle: saline with Tween-80) was 0 of 3 and the survivor count (T/C endpoint: mean survival time, dose: 400.0 mg/kg/injection, schedule: Q04DX002 (ip), vehicle: saline with Tween-80) was 0 of 3.
In the case of `N#CC1=C(N)CCC1`, the survivor count [2] is reported as 0 of 6, the survivor count [3] is reported as 0 of 6 and the survivor count [1] is reported as 3 of 6. The survivor count [4] was 0 of 6.
`CCOC(=O)C(C(=O)OCC)c1cc(NC(=O)c2ccccc2)ccc1NC(=O)c1ccccc1` was tested, and the survivor count [3] was 6 of 6.
In the case of `Cc1ccc2c(ccc(/C=C/c3ccc(O)c4ncccc34)[n+]2C)c1`, the survivor count [2] is reported as 2 of 6, the T/C [5] is reported as 125 % of control and the survivor count [3] is reported as 1 of 6. For the same compound, the survivor count [1] was 6 of 6, the survivor count [4] was 2 of 6 and the survivor count [6] was 6 of 6.
`Cc1c2ccccc2c(CSCCC(N)C(=O)O)c2ccc3ccccc3c12` (centres undefined) was tested, and the survivor count [6] was 6 of 6.
In the case of `COc1ccc(OC)c(C(=O)CCl)c1`, the survivor count [4] is reported as 5 of 6.
`CCCCN(C)N=Nc1ccc(C(N)=O)cc1` was tested, and the survivor count (T/C endpoint: mean survival time, dose: 300.0 mg/kg/injection, schedule: Q01DX009 (ip), vehicle: Klucel (hydroxypropylcellulose) (HPC)) was 0 of 6.
`O=c1ccocc1O` was tested, and the survivor count (T/C endpoint: mean survival time, dose: 100.0 mg/kg/injection, schedule: Q04DX002 (ip), vehicle: saline) was 3 of 3.
In the case of `CCOC(=O)C[S+](C)C`, the survivor count (T/C endpoint: mean survival time, dose: 300.0 mg/kg/injection, schedule: Q01DX001 (ip), vehicle: saline) is reported as 3 of 6.
In the case of `CN1CC2(c3ccccc3)CN(C)CC(c3ccccc3)(C1)C2=O`, the survivor count [5] is reported as 1 of 6, the survivor count [1] is reported as 0 of 6 and the survivor count [6] is reported as 0 of 6.
